Experimental data published in patent publication US7053044B1, “Artificial peptides having surface activity and the use thereof in the preparation of artificial surfactant” (Chiesi Farmaceutici S.p.A., priority 1999, dated 2006).
These are yes or no findings as the source states them, for the method shown. Some entries that bind do so weakly or less than the wild type.

Target: SP-C(Leu)
Experiment: SDS-PAGE, self-association (oligomerisation)

binding: binds
B1: SP-C(Leu) (peptide)
peptide: FGIPSSPVLKRLLILLLLLLLILLLILGALLMGL
